Experimental data taken from patent US12533353B2, “Methods of treatment of cancer comprising CDC7 inhibitors” (CARNA BIOSCIENCES, INC., priority 2018, dated 2026).
For at least one compound, name, drawing or mass did not settle the structure.

Key:
[1] = system: KG-1; assay: Combination of SRA141 with targeted agents, CTG and CTBlue, 72 hours, Bliss CI; conditions: KG-1, 72 hours
[2] = system: Colo-205; assay: as above; conditions: Colo-205, 72 hours
[3] = system: SW620; assay: as above; conditions: SW620, 72 hours
[4] = system: MOLM-13; assay: as above; assay type: cell-based; conditions: MOLM-13, 72 hours
Description: The anti-apoptotic gene BCL-2 was inhibited in Molm-13 cells by treatment with 0.1 μM ABT-199 as previously described (see Examples 6 and 24). Cells were treated with 0.1 μM ABT-199 and SRA141 for 72 hours at SRA141 concentrations of 0.04 μM to 3.30 μM.

[5] = system: MV411; assay: as above; conditions: MV411, 72 hours
[6] = system: COLO-205 cells; assay: Co-treatment combination screen, synergy score, ATPlite; assay type: cell-based, human; conditions: simultaneous combination treatment, 72 hours
Description: The combination screen was performed using the co-treatment dosing schedule for SRA141 and the partner compound. Both enhancee (SRA141) and enhancer (partner compound) were added at time zero (0 h). Cells were exposed to SRA141 and the enhancer for the entire 72-hour treatment time. All data points were collected via automated processes and were subject to quality control and analyzed using proprietary software.
The Growth Inhibition (GI) was utilized as a measure of cell growth. GI percentages are calculated by applying the following test and equation: […]
This formula is derived from the Growth Inhibition calculation used in the National Cancer Institute's NCI-60 high throughput screen. […] These GI calculations were used in all single agent and combination data analysis for the combination screen.
To measure combination effects in excess of Loewe additivity, a scalar measure was used to characterize the strength of synergistic interaction termed the Synergy Score. The Synergy Score is calculated as: Synergy Score=log fX log fYΣ max(0,Idata)(Idata−ILoewe)
The fractional inhibition for each component agent and combination point in the matrix is calculated relative to the median of all vehicle-treated control wells. […]

SMILES | combination effect with SRA141 [1] | combination effect with SRA141 [2] | combination effect with SRA141 [3] | combination effect with SRA141 [4] | combination effect with SRA141 [5] | synergy with SRA141 [6]
CCN(CCCOc1ccc2c(Nc3cc(CC(=O)Nc4cccc(F)c4)n[nH]3)ncnc2c1)CCOP(=O)(O)O [Barasertib] | slight additive effects | act synergistically | slight additive effects | slight additive effects | slight additive effects | 
CC(=O)Nc1cccc(-n2c(=O)n(C3CC3)c(=O)c3c(Nc4ccc(I)cc4F)n(C)c(=O)c(C)c32)c1 [Trametinib] |  | slight additive effect | slight additive effects | slight additive effects |  | Strong synergies
